Some of the results follow. The data scatter; read single values as rough.
Compound: ClCC(=O)N[C@@H]1CCCc2ccccc12
Assay: log2 mean competition ratio of IA-DTB cysteine labelling (DMSO/compound) (log2 ratio); higher = stronger cysteine engagement by compound
Details: 50 µM; treatment time: 4 h; cell line lysate: HEK293T
Method: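 IA-DTB competitive cysteine chemoproteomics in HEK293T RIPA lysate. Lysates were treated with compound 29 or 30 at 50 or 200 µM for 4 h, then IA-DTB (500 µM, 1 h), trypsin-digested, NeutrAvidin-enriched and analysed by diaPASEF. Competition ratio = intensity DMSO / intensity compound (n=4 treated, n=64 DMSO); binding: mean log2 CR ≥ 1 and p ≤ 0.05 plus QC filters. Target is the cysteine site.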

Sequences of proteins named here, by UniProt entry; tags and fusion partners are left off. A change or cut given only in a name is not applied to a line headed by its entry. Residues count along the entry.
UniProt Q5JTZ9, 902-922: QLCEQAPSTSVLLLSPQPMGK
UniProt P09110, 217-237: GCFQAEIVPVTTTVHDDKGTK
UniProt Q9NUT2: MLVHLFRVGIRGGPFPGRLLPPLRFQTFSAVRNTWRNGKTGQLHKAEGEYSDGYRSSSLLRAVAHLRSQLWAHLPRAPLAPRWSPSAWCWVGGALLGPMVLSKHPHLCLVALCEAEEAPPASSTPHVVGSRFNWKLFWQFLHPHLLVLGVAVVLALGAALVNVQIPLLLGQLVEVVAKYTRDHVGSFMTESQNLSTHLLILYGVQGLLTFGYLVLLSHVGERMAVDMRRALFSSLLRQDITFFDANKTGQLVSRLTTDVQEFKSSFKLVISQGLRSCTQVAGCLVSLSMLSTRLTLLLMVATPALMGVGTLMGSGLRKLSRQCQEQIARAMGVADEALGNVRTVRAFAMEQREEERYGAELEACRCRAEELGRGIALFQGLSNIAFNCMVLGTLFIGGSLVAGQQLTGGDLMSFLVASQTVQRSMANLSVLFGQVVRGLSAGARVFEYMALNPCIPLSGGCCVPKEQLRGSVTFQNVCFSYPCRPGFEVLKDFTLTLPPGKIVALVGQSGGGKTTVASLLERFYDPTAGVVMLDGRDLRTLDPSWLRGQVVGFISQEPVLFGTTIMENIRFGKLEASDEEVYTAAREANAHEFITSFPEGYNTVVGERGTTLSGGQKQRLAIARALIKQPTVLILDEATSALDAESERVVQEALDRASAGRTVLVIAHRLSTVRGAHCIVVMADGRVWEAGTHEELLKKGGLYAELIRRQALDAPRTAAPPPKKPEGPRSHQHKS
UniProt Q9NX38: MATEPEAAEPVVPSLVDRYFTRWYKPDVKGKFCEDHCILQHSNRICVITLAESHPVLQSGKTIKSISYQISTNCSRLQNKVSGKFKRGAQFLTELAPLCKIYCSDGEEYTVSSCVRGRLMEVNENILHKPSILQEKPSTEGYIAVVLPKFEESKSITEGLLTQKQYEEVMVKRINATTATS
UniProt Q9UG63: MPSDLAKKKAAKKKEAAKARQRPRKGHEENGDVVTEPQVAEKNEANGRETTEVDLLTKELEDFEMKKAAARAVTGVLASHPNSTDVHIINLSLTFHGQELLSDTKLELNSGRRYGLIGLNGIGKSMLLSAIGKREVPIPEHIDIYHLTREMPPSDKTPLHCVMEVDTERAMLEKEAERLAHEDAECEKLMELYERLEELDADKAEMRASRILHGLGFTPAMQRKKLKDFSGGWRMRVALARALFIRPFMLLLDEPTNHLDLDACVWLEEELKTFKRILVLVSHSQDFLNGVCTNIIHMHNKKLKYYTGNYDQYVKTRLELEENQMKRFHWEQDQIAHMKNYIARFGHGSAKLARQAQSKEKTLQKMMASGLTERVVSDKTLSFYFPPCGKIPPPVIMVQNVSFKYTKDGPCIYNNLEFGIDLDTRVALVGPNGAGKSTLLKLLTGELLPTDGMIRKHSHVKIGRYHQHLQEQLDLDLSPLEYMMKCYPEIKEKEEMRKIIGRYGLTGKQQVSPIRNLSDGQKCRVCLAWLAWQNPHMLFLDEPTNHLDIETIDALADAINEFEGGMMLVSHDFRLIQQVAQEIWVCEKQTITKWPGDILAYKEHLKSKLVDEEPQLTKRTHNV
UniProt Q4L235: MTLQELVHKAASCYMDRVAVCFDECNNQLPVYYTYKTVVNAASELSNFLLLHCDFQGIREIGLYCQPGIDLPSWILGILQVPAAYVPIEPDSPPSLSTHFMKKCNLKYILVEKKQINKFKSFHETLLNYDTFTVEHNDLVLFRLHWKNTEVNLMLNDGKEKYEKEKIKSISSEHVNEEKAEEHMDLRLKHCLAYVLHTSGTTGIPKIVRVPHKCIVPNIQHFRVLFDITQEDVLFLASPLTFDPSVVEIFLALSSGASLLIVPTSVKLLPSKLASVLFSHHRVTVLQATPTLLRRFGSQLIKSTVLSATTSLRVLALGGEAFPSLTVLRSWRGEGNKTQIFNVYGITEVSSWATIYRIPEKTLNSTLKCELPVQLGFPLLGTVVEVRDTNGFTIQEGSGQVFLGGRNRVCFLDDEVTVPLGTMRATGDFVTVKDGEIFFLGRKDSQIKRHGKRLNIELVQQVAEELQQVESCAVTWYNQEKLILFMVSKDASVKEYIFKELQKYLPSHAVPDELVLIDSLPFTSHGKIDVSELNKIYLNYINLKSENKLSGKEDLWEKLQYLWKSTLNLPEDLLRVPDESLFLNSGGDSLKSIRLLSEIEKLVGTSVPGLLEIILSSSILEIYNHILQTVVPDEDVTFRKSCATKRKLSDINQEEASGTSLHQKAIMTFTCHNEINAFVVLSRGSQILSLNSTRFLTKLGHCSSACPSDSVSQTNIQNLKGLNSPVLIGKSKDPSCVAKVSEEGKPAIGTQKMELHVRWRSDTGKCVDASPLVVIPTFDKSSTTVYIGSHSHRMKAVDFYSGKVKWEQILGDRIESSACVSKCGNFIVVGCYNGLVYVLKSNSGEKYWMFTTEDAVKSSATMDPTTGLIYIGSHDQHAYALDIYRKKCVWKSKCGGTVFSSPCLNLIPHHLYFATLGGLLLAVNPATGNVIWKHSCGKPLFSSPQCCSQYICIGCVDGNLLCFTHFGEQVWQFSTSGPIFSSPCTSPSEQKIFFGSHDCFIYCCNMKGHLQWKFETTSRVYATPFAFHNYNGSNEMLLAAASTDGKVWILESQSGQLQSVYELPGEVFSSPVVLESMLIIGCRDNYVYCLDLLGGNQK
UniProt O15440: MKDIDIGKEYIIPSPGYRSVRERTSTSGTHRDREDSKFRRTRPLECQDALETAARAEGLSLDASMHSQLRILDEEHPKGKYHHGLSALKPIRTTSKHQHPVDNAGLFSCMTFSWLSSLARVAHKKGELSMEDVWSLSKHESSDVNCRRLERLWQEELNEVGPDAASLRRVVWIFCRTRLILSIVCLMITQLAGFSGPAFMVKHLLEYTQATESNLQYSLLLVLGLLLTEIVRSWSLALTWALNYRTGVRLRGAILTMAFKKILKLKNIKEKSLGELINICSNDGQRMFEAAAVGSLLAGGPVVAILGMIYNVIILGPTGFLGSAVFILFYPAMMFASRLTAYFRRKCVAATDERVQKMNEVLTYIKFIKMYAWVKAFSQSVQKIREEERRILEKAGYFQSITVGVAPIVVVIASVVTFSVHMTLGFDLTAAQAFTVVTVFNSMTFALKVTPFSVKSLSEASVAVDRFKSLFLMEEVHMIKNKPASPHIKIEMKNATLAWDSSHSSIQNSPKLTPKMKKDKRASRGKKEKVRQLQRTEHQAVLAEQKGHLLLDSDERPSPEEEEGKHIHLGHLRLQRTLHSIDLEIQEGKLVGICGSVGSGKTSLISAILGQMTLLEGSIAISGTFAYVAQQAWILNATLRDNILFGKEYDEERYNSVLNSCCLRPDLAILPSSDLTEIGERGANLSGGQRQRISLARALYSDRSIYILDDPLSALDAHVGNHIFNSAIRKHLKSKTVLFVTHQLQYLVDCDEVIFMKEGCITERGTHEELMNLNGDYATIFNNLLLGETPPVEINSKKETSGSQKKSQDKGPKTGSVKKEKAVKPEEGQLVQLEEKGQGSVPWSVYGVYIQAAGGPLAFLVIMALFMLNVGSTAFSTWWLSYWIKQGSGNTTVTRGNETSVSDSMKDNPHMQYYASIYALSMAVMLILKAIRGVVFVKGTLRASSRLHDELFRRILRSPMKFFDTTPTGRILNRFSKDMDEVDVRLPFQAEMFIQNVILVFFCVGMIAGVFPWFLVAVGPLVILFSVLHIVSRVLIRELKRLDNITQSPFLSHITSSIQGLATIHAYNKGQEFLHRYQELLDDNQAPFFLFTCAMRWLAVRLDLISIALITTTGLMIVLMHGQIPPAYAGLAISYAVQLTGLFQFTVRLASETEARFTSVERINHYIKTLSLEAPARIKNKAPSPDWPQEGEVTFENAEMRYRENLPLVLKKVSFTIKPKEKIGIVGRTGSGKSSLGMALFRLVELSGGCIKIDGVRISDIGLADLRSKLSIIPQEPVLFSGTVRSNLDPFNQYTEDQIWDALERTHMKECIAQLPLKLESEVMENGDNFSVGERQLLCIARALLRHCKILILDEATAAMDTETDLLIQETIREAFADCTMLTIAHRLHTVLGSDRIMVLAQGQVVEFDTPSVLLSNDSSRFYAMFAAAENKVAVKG
UniProt Q9NYB9: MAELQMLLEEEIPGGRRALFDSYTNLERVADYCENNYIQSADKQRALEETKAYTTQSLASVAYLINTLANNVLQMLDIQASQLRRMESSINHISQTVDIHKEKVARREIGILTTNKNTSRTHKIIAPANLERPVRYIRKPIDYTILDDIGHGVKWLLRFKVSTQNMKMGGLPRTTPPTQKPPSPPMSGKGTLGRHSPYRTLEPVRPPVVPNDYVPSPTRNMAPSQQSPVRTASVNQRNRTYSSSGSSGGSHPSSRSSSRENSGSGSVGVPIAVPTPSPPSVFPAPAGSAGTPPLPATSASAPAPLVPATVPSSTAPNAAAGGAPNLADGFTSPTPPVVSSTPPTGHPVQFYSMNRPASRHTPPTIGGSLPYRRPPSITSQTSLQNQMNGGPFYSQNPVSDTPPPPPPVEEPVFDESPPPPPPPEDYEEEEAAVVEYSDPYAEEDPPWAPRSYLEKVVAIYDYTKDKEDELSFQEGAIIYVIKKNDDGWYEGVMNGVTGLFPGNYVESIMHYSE
UniProt Q13685: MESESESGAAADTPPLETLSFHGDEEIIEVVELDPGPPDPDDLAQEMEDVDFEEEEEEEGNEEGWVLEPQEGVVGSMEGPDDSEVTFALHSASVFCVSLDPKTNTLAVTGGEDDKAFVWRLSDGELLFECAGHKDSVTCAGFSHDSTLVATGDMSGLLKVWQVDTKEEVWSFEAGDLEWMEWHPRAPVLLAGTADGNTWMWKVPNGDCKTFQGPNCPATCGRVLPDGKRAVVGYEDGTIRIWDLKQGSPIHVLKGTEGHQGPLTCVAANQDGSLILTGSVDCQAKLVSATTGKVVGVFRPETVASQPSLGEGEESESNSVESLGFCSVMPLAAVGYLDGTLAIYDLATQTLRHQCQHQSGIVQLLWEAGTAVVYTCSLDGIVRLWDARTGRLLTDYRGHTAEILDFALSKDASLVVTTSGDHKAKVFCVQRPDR
UniProt Q12979: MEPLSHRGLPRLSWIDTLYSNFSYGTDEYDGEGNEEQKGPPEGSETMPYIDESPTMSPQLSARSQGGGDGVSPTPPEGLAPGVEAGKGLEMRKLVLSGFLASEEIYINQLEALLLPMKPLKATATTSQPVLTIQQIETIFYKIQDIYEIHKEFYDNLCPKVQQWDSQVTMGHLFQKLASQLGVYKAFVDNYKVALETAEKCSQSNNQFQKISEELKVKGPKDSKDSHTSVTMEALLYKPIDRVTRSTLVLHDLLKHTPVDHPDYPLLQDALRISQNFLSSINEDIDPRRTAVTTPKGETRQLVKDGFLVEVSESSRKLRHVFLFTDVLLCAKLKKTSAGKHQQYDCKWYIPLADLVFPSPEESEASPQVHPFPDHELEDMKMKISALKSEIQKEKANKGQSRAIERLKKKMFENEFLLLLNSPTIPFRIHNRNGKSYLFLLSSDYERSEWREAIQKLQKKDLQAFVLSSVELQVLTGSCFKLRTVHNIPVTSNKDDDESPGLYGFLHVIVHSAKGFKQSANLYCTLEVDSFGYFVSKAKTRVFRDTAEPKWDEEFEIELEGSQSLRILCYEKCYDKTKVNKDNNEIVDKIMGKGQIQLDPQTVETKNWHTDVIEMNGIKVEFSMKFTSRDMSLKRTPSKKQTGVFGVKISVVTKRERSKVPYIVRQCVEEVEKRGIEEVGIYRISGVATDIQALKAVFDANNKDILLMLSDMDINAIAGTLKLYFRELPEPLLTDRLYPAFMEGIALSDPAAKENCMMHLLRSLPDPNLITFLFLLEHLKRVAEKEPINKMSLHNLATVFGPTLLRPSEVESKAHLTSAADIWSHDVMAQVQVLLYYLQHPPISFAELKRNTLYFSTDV
UniProt P49748: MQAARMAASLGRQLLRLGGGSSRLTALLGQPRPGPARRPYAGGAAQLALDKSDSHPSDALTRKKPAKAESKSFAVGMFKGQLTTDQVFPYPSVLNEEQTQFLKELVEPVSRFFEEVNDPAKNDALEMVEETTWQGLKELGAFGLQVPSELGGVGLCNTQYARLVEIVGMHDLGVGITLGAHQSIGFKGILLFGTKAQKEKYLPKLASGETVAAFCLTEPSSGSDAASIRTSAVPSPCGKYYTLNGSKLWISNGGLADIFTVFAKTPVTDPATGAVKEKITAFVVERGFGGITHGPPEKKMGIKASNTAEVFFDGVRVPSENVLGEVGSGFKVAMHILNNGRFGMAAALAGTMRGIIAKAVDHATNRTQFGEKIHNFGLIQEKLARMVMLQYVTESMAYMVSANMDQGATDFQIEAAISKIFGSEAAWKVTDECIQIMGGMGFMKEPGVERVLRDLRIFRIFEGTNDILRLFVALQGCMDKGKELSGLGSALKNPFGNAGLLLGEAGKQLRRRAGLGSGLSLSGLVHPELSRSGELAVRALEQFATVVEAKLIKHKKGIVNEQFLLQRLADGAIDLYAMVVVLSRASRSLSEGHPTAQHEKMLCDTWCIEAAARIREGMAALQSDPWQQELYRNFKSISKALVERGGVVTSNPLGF

| Target | log2 mean competition ratio |
| --- | --- |
| ABCB1 C431 (UniProt P08183) | 0.0511 |
| ACADSB C261 (UniProt P45954) | 0.304 |
| AARS2 C904 (UniProt Q5JTZ9) | -0.0927 |

Same assay, conditions: 200 µM; treatment time: 4 h; cell line lysate: HEK293T

| Target | log2 mean competition ratio |
| --- | --- |
| ABL2 C510 (UniProt P42684) | -0.285 |
| ACAA1 C177 (UniProt P09110) | 0.138 |
| ABCB8 C364 (UniProt Q9NUT2) | 0.193 |
| ABITRAM C74 (UniProt Q9NX38) | -0.0962 |
| ABCB1 C1074 (UniProt P08183) | 0.281 |
| ACAP2 C321 (UniProt Q15057) | 0.1 |
| ABCF2 C186 (UniProt Q9UG63) | 0.182 |
| ABHD10 C100 (UniProt Q9NUJ1) | 0.209 |
| ABCC10 C1425 (UniProt Q5T3U5) | -0.00674 |
| ACAA1 C218 (UniProt P09110) | -0.254 |
| ABL2 C415 (UniProt P42684) | 0.0469 |
| AASDH C736 (UniProt Q4L235) | -0.192 |
| AARS1 C671 (UniProt H3BPK7) | -0.491 |
| ABCF1 C655 | -0.174 |
| ACAT1 C126 | 2.48 |
| ABCC5 C760 (UniProt O15440) | 0.0253 |
| ABCF2 C586 (UniProt Q9UG63) | 0.0664 |
| ACACA C407 (UniProt Q13085) | -0.44 |
| ABI2 C33 (UniProt Q9NYB9) | -0.361 |
| AAMP C208 (UniProt Q13685) | 0.24 |
| ABR C346 (UniProt Q12979) | 0.0183 |
| AAK1 C193 | -0.0861 |
| ABHD16A C248 (UniProt O95870) | -0.0255 |
| ACADVL C237 (UniProt P49748) | -0.121 |
| ACAP2 C329 (UniProt Q15057) | 0.378 |

Pulled one by one from above, 2 records:

| Target | log2 mean competition ratio |
| --- | --- |
| ACAA1 C218 (UniProt P09110) | -0.254 |
| ABI2 C33 (UniProt Q9NYB9) | -0.361 |
